Data: patent publication US20140329275A1, “BIOCATALYSIS CELLS AND METHODS” (REGENTS OF THE UNIVERSITY OF MINNESOTA, priority 2011, published 2014)

Details: hexane and oleyl alcohol vs aqueous fermentation broth, pH 3.0

distribution coefficient Kd: high
Compound: CC(C)CC(=O)O [isovaleric acid]
